Data as given in PubChem BioAssay AID1159584 (Peter MacCallum Cancer Centre, 2016)
Shown is a random part of about 18,000 deposited reagents. Reagents against one gene are numbered here. Further read-outs or replicates are left out here. The record does not give: the amount of reagent, the time to read-out.

- Test: 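Genes that CDH1-null MCF10A cells selectively depend on to survive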 (primary screen)
- Cell system: human MCF10A breast epithelial cells, parental and CDH1-null
- Reagent: siRNA against human genes
- Measurement: 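ATP luminescence (CellTiter-Glo) viability per line relative to mean mock wells over all plates, and the ratio of CDH1-null to parental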
- Reading the numbers: CDH1-null / parental viability ratio: higher = CDH1-null cells survive relatively better than parental

CDH1-null / parental viability ratio, by gene and reagent
TMEM41B: #1 0.7
SLC39A3: #1 0.89
CYP2J2: #1 1.12
LANCL2: #1 1.07
COL1A2: #1 1.33
LINC00477: #1 1.19
DCLK1: #1 0.86
RPL17: #1 1.19
RFXAP: #1 1.04
CNDP2: #1 1.23
PPP1R13L: #1 1.34
DAPP1: #1 0.98
TMEM92: #1 0.85
TUBGCP3: #1 0.94
CFAP299: #1 0.93
SLC4A5: #1 1.07
DUSP29: #1 1.1
MCRIP1: #1 1.23
CTSG: #1 1.04
VARS1: #1 0.95
PLCH2: #1 1.11
MPL: #1 1.01
TNFSF12-TNFSF13: #1 0.96
IGFBP7: #1 1.03
WNT2B: #1 1.08
TDRD3: #1 0.98
KEL: #1 1.12
BEX4: #1 0.88
CBX1: #1 1.24
CGB3: #1 0.98
TMEM68: #1 0.95
TFF1: #1 1.35
TRIM64C: #1 0.97; #2 1.06
CRHBP: #1 0.94
TUBA3D: #1 0.89
LAPTM4B: #1 1
SLC22A1: #1 1.07
MKX: #1 1.2
NEUROD6: #1 1.25
PELP1: #1 1.06
SPIN3: #1 0.79
SLC52A1: #1 0.86
GRTP1: #1 0.72
PROCR: #1 0.8
ADRA2C: #1 1.58
NAA25: #1 0.97
NUP62: #1 0.93
CD300LG: #1 1.17
AGXT: #1 0.73
GOT1L1: #1 1.08
MB21D2: #1 0.97
SIGLEC7: #1 0.77
ZNF773: #1 0.87
TTC13: #1 1.61
DHX38: #1 0.88
GNB3: #1 0.98
G3BP1: #1 1.18
PGRMC1: #1 1.02
RAB36: #1 0.8
SQSTM1: #1 1.06
SLC43A2: #1 1.09
SMARCA4: #1 1.12
MLH3: #1 0.88
TEX26: #1 0.88
ABHD17B: #1 0.89
INAVA: #1 1.34
NEDD4L: #1 1.1

Entries above whose target name begins with L or l (3):
CDH1-null / parental viability ratio, by gene and reagent
LANCL2: #1 1.07
LINC00477: #1 1.19
LAPTM4B: #1 1
